# Source: PubChem BioAssay AID504834 (National Center for Advancing Translational Sciences (NCATS), 2011)
# The campaign covered roughly 320,000 compounds. About 22,000 (6.9%) were called active. Inconclusive means that the source gave no clear call. Such entries were picked first, then a sample of the others. Calls follow the shape of the dose curve; as a rule, active = well fitted inhibition curve with a large enough effect; inconclusive = small, poorly fitted or top-dose-only effect, or another doubt; inactive = no such curve, though single readings can be large or run the other way. A potency beside an inconclusive call is a rough fit, not a confirmed value.
# Test: Primary qHTS for delayed death inhibitors of the malarial parasite plastid, 96 hour incubation
# Conditions: P. falciparum luciferase reporter growth; series mostly up to 28.7 µM; activity change, negative = inhibition: at the top concentration
# In short: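 Parasite growth measured via integrated firefly luciferase reporter in P. falciparum. Infected erythrocytes at 2% hematocrit, 0.05% parasitemia final were treated 96 hours at 37 C under 5% CO2, and luminescence was read.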
# % is scaled to controls: 0 for no effect and ±100 for the full control effect; potency is read from the fitted curve at half-maximal effect.
SMILES,"activity change, negative = inhibition",Potency
O=C(CN(Cc1ccccc1)C(=O)CCC(=O)Nc1nccs1)NCc1ccccc1,inactive: -4.46%,
O=C(CNc1cccc(S(=O)(=O)N2CCCCC2)c1)Nc1ccccc1F,,"inconclusive: 18.5 µM [inhibitor, single point]"
Cc1ccnc(N2CCC(C(=O)Nc3cccc(C(F)(F)F)c3)CC2)n1,inactive: 5.98%,
O=C(NC(=S)Nc1cccnc1Cl)c1ccco1,inactive: 26.3%,
CNC1CC(N)[C@H](O)[C@@H](O[C@@H]2OC(CO)C3OC4(OC(C(N)CO)C(O)C(O)C4O)O[C@@H]3[C@H]2O)C1O (stereo not given in full),inactive: 14.2%,
COC(=O)c1c(C(=O)OC)c(-c2ccc(Cl)c(Cl)c2)n2c1CCC2,,"inconclusive: 2.62 µM [inhibitor, full curve, poor fit]"
O=C(CCc1ccccc1)NCC(c1ccco1)N1CCc2ccccc21 (stereo not given),,"inconclusive: 18.5 µM [inhibitor, single point]"
Oc1c(Cl)cc(Cl)cc1/C=N/NC(=S)NC1CC2C=CC1C2 (stereo not given),,"inconclusive: 11.7 µM [inhibitor, partial curve, poor fit]"
COc1ccccc1CNC(=O)c1sccc1-c1ccccc1,,"inconclusive: 5.22 µM [inhibitor, partial curve, poor fit]"
CC(C)OCCCNC(=O)NC(=O)c1ccc(Cl)cc1,,"inconclusive: 18.5 µM [inhibitor, single point]"
Cc1cc(NC(=O)C(C)SCC(=O)Nc2ccccc2N2CCCCC2)no1 (stereo not given),,active: 9.28 µM
NC(=O)C(=O)N/N=C1\CCc2ccccc21,inactive: 0%,
Cc1cc(Br)ccc1NC(=O)CN(C)C(=O)C1CSC2(C)CCC(=O)N12 (stereo not given),inactive: -0.83%,
CCc1c(C(=O)N/N=C/c2cccs2)nnn1-c1nonc1N,inactive: 16%,
Cc1nc2sc(C(c3cccs3)N3CCN(c4cccc(Cl)c4)CC3)c(O)n2n1 (stereo not given),,"inconclusive: 18.5 µM [inhibitor, single point]"
O=C(COc1ncnc2ccc(Br)cc12)Nc1ccc(N2CCOCC2)cc1,inactive: -10.2%,
COc1cc(CN2CCNC(=O)C2CC(=O)N2CCCCO2)cc(OC)c1 (stereo not given),,"inconclusive: 11.7 µM [inhibitor, single point]"
COc1ccc(N(Cc2ccccc2)S(=O)(=O)c2cccc(C(=O)NC3=NCCS3)c2)cc1,,"inconclusive: 0.657 µM [inhibitor, full curve, poor fit]"
COCCNC(=O)Cn1nc(-c2ccc(Cl)cc2)c2ccccc2c1=O,,"inconclusive: 2.08 µM [inhibitor, full curve]"
CCOC(=O)CN(C(=O)COc1nc(C)cc(C)c1C#N)c1ccc(F)cc1,,"inconclusive: 18.5 µM [inhibitor, single point]"
COc1ccc(OC)c(/C=C/C(=O)Nc2ccc3c(c2)CCC3)c1,,"inconclusive: 18.5 µM [inhibitor, single point]"
COc1ccc(S(=O)(=O)N2CCCC2C(=O)NCc2ccccc2Cl)cc1 (stereo not given),inactive: -2.73%,
CCOc1ccc(CCNC(=O)COC(=O)COc2ccc(Cl)cc2)cc1OCC,inactive: 10.5%,
CCOC(=O)c1[nH]c2ccc(OC)cc2c1NC(=O)CCN1CCc2ccccc2C1,,"inconclusive: 3.7 µM [inhibitor, partial curve, poor fit]"

SMILES,"activity change, negative = inhibition",Potency
Cc1ccc(S(=O)(=O)N2CCOCC2)cc1C(=O)OCc1nnc(-c2ccccc2)o1,,"inconclusive: 2.62 µM [inhibitor, partial curve, poor fit]"
Cc1cccc(NC(=O)CN2CCN(C(=O)c3cccc(-n4cnnn4)c3)CC2)c1C,,"inconclusive: 13.1 µM [inhibitor, partial curve, poor fit]"
CCCC(C(=O)Nc1cccc(S(=O)(=O)N2CCCC2)c1)c1ccccc1 (stereo not given),,active: 10.4 µM
COc1cc(OC)c(S(=O)(=O)Nc2ccccc2N2CCCCC2)cc1NC(C)=O,,active: 9.28 µM
O=C(NCc1ccccn1)[C@H]1C[C@@H]1[C@H](NP(=O)(c1ccccc1)c1ccccc1)c1ccccc1,,"inconclusive: 18.5 µM [inhibitor, single point]"
CCn1c(SCC(=O)N(C)C)nc2cc(S(=O)(=O)N3CCOCC3)ccc21,,"inconclusive: 14.7 µM [inhibitor, partial curve]"
O=C(Nc1ccccc1Cl)c1cc(S(=O)(=O)N2CCCCC2)ccc1N1CCOCC1,,active: 5.86 µM
C=CC(COCc1ccccc1)N(Cc1ccc(OC)cc1)S(=O)(=O)c1ccccc1Br (stereo not given),,"inconclusive: 11.7 µM [inhibitor, partial curve, poor fit]"
C[n+]1c(-c2ccccc2)cc(CCCCc2cc(-c3ccccc3)[n+](C)c(-c3ccccc3)c2)cc1-c1ccccc1,,active: 0.928 µM
CCOC(=O)Cc1csc(NS(=O)(=O)c2ccc(Cl)cc2)n1,,active: 8.28 µM
CC1(C)CC(=O)c2cc(C(=O)N3CCCC(C)(C)C3)c(=O)n(-c3ccccc3)c2C1,,"inconclusive: 2.33 µM [inhibitor, full curve, poor fit]"
O=C(c1ccc(-c2nc3ccccc3s2)o1)N1CCN(c2ccccc2O)CC1,,active: 5.22 µM
CCOc1ccccc1N1CCN(C(=O)CSc2ccc3c(c2)OCCO3)CC1,,"inconclusive: 2.08 µM [inhibitor, full curve]"
O=C(NNC1=Nc2ccccc2SC1)c1ccc(F)cc1,,"inconclusive: 3.29 µM [inhibitor, full curve, poor fit]"
CCC(C)N1CC(=O)N2Cc3[nH]c4ccccc4c3C[C@H]2C1=O (stereo not given in full),inactive: 3.67%,
Cc1nnc(SCC2=C(C(=O)O)N3C(=O)C(NC(=O)Cn4ncc(Cl)c4C)C3SC2)s1 (stereo not given),,"inconclusive: 10.4 µM [inhibitor, single point]"
COc1ccc(-c2nn(CCC#N)cc2C=C(C#N)C#N)cc1,inactive: 4.5%,
O=C(CN(C(=O)Cn1nnc(-c2ccc(F)cc2)n1)c1ccc(F)cc1)NC1CCCC1,,"inconclusive: 20.8 µM [inhibitor, partial curve, poor fit]"
CCN1C(=O)[C@@H]2[C@@H](c3ccc(-c4ccc(OC)cc4)c(OC)c3)N3CCC[C@@]3(C(=O)OC)[C@@H]2C1=O,,active: 10.4 µM
CC(=O)OC1CCC(OC(C)=O)c2c1n([O-])c(C)c(C)[n+]2=O (stereo not given),,"inconclusive: 9.28 µM [inhibitor, single point]"
O=S(=O)(Nc1ncnc2c1oc1ccccc12)c1ccc(Cl)s1,inactive: 34.6%,
Cc1ccc(Oc2nc3ccccn3c(=O)c2/C=C(\C#N)C(=O)Nc2c(C)n(C)n(-c3ccccc3)c2=O)c(C)c1,,"inconclusive: 14.7 µM [inhibitor, single point]"
O=C(N/N=C/c1ccc[nH]1)c1ccc(Cl)cc1,inactive: -4.75%,
CCN(CC)C(=O)c1nn(Cc2ccccc2)c(=O)c2ccccc12,,"inconclusive: 11.7 µM [inhibitor, single point]"

# Some of the entries so far, tab-delimited.
SMILES	activity change, negative = inhibition	Potency
O=C(c1ccc(-c2nc3ccccc3s2)o1)N1CCN(c2ccccc2O)CC1		active: 5.22 µM
CCOc1ccccc1N1CCN(C(=O)CSc2ccc3c(c2)OCCO3)CC1		inconclusive: 2.08 µM [inhibitor, full curve]
O=C(NNC1=Nc2ccccc2SC1)c1ccc(F)cc1		inconclusive: 3.29 µM [inhibitor, full curve, poor fit]
CCC(C)N1CC(=O)N2Cc3[nH]c4ccccc4c3C[C@H]2C1=O (stereo not given in full)	inactive: 3.67%	
Cc1nnc(SCC2=C(C(=O)O)N3C(=O)C(NC(=O)Cn4ncc(Cl)c4C)C3SC2)s1 (stereo not given)		inconclusive: 10.4 µM [inhibitor, single point]
COc1ccc(-c2nn(CCC#N)cc2C=C(C#N)C#N)cc1	inactive: 4.5%	

# Continuation:

SMILES,"activity change, negative = inhibition",Potency
Cc1ccc(S(=O)(=O)N2CC=C(c3c(C)n(C)c4ccccc34)CC2)cc1,,"inconclusive: 18.5 µM [inhibitor, single point]"
COc1cc(/C=C2\C(=O)ON=C2c2ccccc2)cc(Cl)c1O,inactive: 19.6%,
COC(=O)c1ccc(NC(=O)C(=O)c2cn(CC(=O)N3CCOCC3)c3ccccc23)cc1,,"inconclusive: 2.08 µM [inhibitor, partial curve, poor fit]"
Cc1ccc(S(=O)(=O)N/N=C/c2cccc3nccnc23)cc1,inactive: -7.48%,
Cc1c(Cl)cnn1CC(=O)NC1C(=O)N2C(C(=O)O)=C(CSc3nnnn3C)CSC12 (stereo not given),,"inconclusive: 18.5 µM [inhibitor, single point]"
CCOc1cc2[nH]c(=S)n(CCC(=O)N3CCc4ccccc4C3)c(=O)c2cc1OCC,,active: 9.28 µM
CCN(CC)CCn1c2c(c(SCC(=O)Nc3ccc(C)c(F)c3)nc1=O)CCC2,inactive: 52.7%,
COc1cccc(CNC(=O)c2cccnc2Sc2ccccc2)c1,,"inconclusive: 18.5 µM [inhibitor, single point]"
CC1(C)CC(N2CCCC2)=CC(=[N+]2CCCCCC2)C1,inactive: -19.8%,
CCc1ccccc1NC(=O)c1cnn(-c2ccccc2)c1C,,"inconclusive: 14.7 µM [inhibitor, single point]"
O=C(NCCCN1CCOCC1)c1ccc([N+](=O)[O-])cc1[N+](=O)[O-],inactive: 18.7%,
COc1ccc(NC(=O)Nc2ccc(OC)c(OC)c2)c([N+](=O)[O-])c1,inactive: 15.7%,
C=CCn1c(SCc2c(C)noc2C)nc2sc3c(c2c1=O)CCCC3,,active: 2.08 µM
COc1ccc(NC(=O)c2cccs2)cc1OC,inactive: 170%,
O=C1N=C(N2CCCCC2)S/C1=C\c1ccc(Cl)cc1,,"inconclusive: 13.1 µM [inhibitor, single point]"
CCCc1cc(=O)oc2cc(OCC(=O)N3CCC(C(=O)O)(c4ccccc4)CC3)ccc12,,"inconclusive: 0.104 µM [inhibitor, full curve, poor fit]"
COc1ccc(CNC(=O)CSc2nc(SC)ns2)cc1,inactive: 15.9%,
CC(Oc1ccc(Cl)cc1)C(=O)NCC1CCCO1 (stereo not given),inactive: -1.33%,
COc1cccc(NC(=O)CN(C)C(=O)c2csc3c2CCCC3)c1,,"inconclusive: 18.5 µM [inhibitor, single point]"
CCn1c(C)nc2cc(S(=O)(=O)C(F)(F)F)ccc21,,"inconclusive: 18.5 µM [inhibitor, single point]"
CCCc1ccc(C(=O)[C@@H]2[C@@H](C(C)=O)N3c4ccc(F)cc4C=C[C@@H]3[C@@]23C(=O)Nc2ccccc23)cc1,,"inconclusive: 18.5 µM [inhibitor, partial curve, poor fit]"
CCOc1cc(/C=N/NC(=O)C(=O)N/N=C/c2ccc(O)c(OCC)c2)ccc1O,inactive: 133%,
